Laboratory results published in paper doi:10.1101/2024.01.29.577192.
Results are given in words; binding and its absence hold for the method and conditions named. In cells and extracts the contact can be indirect. Some entries that bind do so weakly or less than the wild type.

Protein sequences, listed by entry. Tags and fused reporters are not part of them.
UniProt Q00839: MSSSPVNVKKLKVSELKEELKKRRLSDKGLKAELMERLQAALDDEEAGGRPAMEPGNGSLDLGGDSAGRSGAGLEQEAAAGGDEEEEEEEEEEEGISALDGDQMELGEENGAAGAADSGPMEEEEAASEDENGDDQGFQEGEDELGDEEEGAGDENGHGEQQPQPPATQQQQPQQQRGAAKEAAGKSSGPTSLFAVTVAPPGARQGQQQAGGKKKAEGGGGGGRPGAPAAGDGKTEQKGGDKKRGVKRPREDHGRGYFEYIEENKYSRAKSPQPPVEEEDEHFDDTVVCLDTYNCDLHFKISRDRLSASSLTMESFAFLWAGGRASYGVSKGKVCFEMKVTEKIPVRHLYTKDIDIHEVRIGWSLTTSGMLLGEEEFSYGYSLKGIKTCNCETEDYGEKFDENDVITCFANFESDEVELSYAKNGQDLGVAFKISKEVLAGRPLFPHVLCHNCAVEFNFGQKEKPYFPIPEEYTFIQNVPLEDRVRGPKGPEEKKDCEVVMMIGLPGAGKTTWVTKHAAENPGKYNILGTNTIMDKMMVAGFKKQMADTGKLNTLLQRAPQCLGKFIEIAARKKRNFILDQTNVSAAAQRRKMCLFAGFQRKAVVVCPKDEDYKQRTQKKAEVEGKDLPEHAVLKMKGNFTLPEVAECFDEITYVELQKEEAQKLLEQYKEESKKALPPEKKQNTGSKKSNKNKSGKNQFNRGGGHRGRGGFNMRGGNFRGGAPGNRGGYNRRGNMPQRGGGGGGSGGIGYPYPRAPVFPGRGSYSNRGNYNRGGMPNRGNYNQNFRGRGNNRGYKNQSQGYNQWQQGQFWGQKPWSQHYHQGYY
UniProt O00571: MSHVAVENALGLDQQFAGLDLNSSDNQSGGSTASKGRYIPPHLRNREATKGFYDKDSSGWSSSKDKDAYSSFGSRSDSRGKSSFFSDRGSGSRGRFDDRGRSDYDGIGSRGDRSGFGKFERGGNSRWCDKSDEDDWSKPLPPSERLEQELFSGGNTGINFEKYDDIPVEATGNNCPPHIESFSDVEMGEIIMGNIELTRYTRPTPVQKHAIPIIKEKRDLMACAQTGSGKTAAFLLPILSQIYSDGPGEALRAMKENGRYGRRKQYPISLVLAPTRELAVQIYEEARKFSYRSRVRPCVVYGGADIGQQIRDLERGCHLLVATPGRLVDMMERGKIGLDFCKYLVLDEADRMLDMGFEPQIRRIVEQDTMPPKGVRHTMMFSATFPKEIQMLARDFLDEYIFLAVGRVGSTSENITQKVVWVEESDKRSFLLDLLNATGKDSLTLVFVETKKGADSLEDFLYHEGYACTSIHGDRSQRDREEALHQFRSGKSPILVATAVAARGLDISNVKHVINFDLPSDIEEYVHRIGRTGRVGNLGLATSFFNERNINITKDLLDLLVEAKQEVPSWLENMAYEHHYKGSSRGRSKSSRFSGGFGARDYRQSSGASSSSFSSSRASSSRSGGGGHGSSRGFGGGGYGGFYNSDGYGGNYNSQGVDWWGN

B1: GRSF1 (protein, UniProt Q12849 118-480)
chain: SQESKTTYLEDLPPPPEYELAPSKLEEEVDDVFLIRAQGLPWSCTMEDVLNFFSDCRIRNGENGIHFLLNRDGKRRGDALIEMESEQDVQKALEKHRMYMGQRYVEVYEINNEDVDALMKSLQVKSSPVVNDGVVRLRGLPYSCNEKDIVDFFAGLNIVDITFVMDYRGRRKTGEAYVQFEEPEMANQALLKHREEIGNRYIEIFPSRRNEVRTHVGSYKGKKIASFPTAKYITEPEMVFEEHEVNEDIQPMTAFESEKEIELPKEVPEKLPEAADFGTTSSLHFVHMRGLPFQANAQDIINFFAPLKPVRITMEYSSSGKATGEADVHFETHEDAVAAMLKDRSHVHHRYIELFLNSCPKGK

Target: flag-tagged unmodified hnRNP U (WT) (UniProt Q00839)
Test: co-IP

Molecule | binding
DDX3X (from UniProt O00571 1-662) | binds
B1 | no binding
